# The list shows a part of the results.
# Experiments:
# Experiment in all cases: glycan array binding signal (z-score within array); higher = stronger binding
# Details in all cases: glycan notation: IUPAC condensed, linker removed
# [1] = biological target: Gal(b1-4)GlcNAc(b1-3)Gal(b1-4)GlcNAc(b1-2)Man(a1-3)[Gal(b1-4)GlcNAc(b1-3)Gal(b1-4)GlcNAc(b1-2)Man(a1-6)]Man(b1-4)GlcNAc(b1-4)[Fuc(a1-6)]GlcNAc
# Outline: (§1)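 Glycan array data came from 3228 arrays in the Consortium for Functional Glycomics database, and only arrays with an available protein sequence were kept. Glycan names were put into IUPAC-condensed notation, and columns mapping to the same glycan were averaged. The binding signal is a within-array Z-score, averaged across arrays of one protein sequence run at different concentrations or buffers and across linkers. A negative Z-score can be read as non-binding.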
# [2] = biological target: Gal(b1-4)GlcNAc(b1-3)Gal(b1-4)GlcNAc(b1-2)[Gal(b1-4)GlcNAc(b1-3)Gal(b1-4)GlcNAc(b1-6)]Man(a1-6)[Gal(b1-4)GlcNAc(b1-3)Gal(b1-4)GlcNAc(b1-2)Man(a1-3)]Man(b1-4)GlcNAc(b1-4)GlcNAc
# Outline: as §1
# [3] = biological target: Gal(b1-4)GlcNAc(b1-3)Gal(b1-4)GlcNAc(b1-2)[Gal(b1-4)GlcNAc(b1-3)Gal(b1-4)GlcNAc(b1-6)]Man(a1-6)[Gal(b1-4)GlcNAc(b1-3)Gal(b1-4)GlcNAc(b1-2)Man(a1-3)]Man(b1-4)GlcNAc(b1-4)[Fuc(a1-6)]GlcNAc
# Outline: as §1
# [4] = biological target: Gal(b1-4)GlcNAc(b1-3)Gal(b1-4)GlcNAc(b1-3)Gal(b1-4)GlcNAc
# Outline: as §1
# [5] = biological target: Gal(b1-4)GlcNAc(b1-3)Gal(b1-4)GlcNAc(b1-3)Gal(b1-4)GlcNAc(b1-2)Man(a1-3)[Gal(b1-4)GlcNAc(b1-3)Gal(b1-4)GlcNAc(b1-3)Gal(b1-4)GlcNAc(b1-2)Man(a1-6)]Man(b1-4)GlcNAc(b1-4)GlcNAc
# Outline: as §1
# [6] = biological target: Gal(b1-4)GlcNAc(b1-3)Gal(b1-4)GlcNAc(b1-3)Gal(b1-4)GlcNAc(b1-2)Man(a1-3)[Gal(b1-4)GlcNAc(b1-3)Gal(b1-4)GlcNAc(b1-3)Gal(b1-4)GlcNAc(b1-2)Man(a1-6)]Man(b1-4)GlcNAc(b1-4)[Fuc(a1-6)]GlcNAc
# Outline: as §1
# [7] = biological target: Gal(b1-4)GlcNAc(b1-3)Gal(b1-4)GlcNAc(b1-3)Gal(b1-4)GlcNAc(b1-2)[Gal(b1-4)GlcNAc(b1-3)Gal(b1-4)GlcNAc(b1-3)Gal(b1-4)GlcNAc(b1-6)]Man(a1-6)[Gal(b1-4)GlcNAc(b1-3)Gal(b1-4)GlcNAc(b1-3)Gal(b1-4)GlcNAc(b1-2)Man(a1-3)]Man(b1-4)GlcNAc(b1-4)[Fuc(a1-6)]GlcNAc
# Outline: as §1
# [8] = biological target: Gal(b1-4)GlcNAc(b1-3)Gal(b1-4)GlcNAc(b1-3)Gal(b1-4)GlcNAc(b1-3)Gal(b1-4)GlcNAc(b1-2)Man(a1-3)[Gal(b1-4)GlcNAc(b1-3)Gal(b1-4)GlcNAc(b1-3)Gal(b1-4)GlcNAc(b1-3)Gal(b1-4)GlcNAc(b1-2)Man(a1-6)]Man(b1-4)GlcNAc(b1-4)GlcNAc
# Outline: as §1
# [9] = biological target: Gal(b1-4)GlcNAc(b1-3)Gal(b1-4)GlcNAc(b1-3)Gal(b1-4)GlcNAc(b1-3)Gal(b1-4)GlcNAc(b1-2)Man(a1-3)[Gal(b1-4)GlcNAc(b1-3)Gal(b1-4)GlcNAc(b1-3)Gal(b1-4)GlcNAc(b1-3)Gal(b1-4)GlcNAc(b1-2)Man(a1-6)]Man(b1-4)GlcNAc(b1-4)[Fuc(a1-6)]GlcNAc
# Outline: as §1
# [10] = biological target: Gal(b1-4)GlcNAc(b1-3)Gal(b1-4)GlcNAc(b1-3)Gal(b1-4)GlcNAc(b1-3)Gal(b1-4)GlcNAc(b1-2)[Gal(b1-4)GlcNAc(b1-3)Gal(b1-4)GlcNAc(b1-3)Gal(b1-4)GlcNAc(b1-3)Gal(b1-4)GlcNAc(b1-6)]Man(a1-6)[Gal(b1-4)GlcNAc(b1-3)Gal(b1-4)GlcNAc(b1-3)Gal(b1-4)GlcNAc(b1-3)Gal(b1-4)GlcNAc(b1-2)Man(a1-3)]Man(b1-4)GlcNAc(b1-4)[Fuc(a1-6)]GlcNAc
# Outline: as §1
# [11] = biological target: Gal(b1-4)GlcNAc(b1-3)Gal(b1-4)GlcNAc(b1-3)Gal(b1-4)GlcNAc(b1-3)Gal(b1-4)GlcNAc(b1-3)Gal(b1-4)GlcNAc(b1-2)Man(a1-3)[Gal(b1-4)GlcNAc(b1-3)Gal(b1-4)GlcNAc(b1-3)Gal(b1-4)GlcNAc(b1-3)Gal(b1-4)GlcNAc(b1-3)Gal(b1-4)GlcNAc(b1-2)Man(a1-6)]Man(b1-4)GlcNAc(b1-4)GlcNAc
# Outline: as §1
# [12] = biological target: Gal(b1-4)GlcNAc(b1-3)Gal(b1-4)GlcNAc(b1-3)Gal(b1-4)GlcNAc(b1-3)Gal(b1-4)GlcNAc(b1-3)Gal(b1-4)GlcNAc(b1-2)Man(a1-3)[Gal(b1-4)GlcNAc(b1-3)Gal(b1-4)GlcNAc(b1-3)Gal(b1-4)GlcNAc(b1-3)Gal(b1-4)GlcNAc(b1-3)Gal(b1-4)GlcNAc(b1-2)Man(a1-6)]Man(b1-4)GlcNAc(b1-4)[Fuc(a1-6)]GlcNAc
# Outline: as §1
# [13] = biological target: Gal(b1-4)GlcNAc(b1-3)Gal(b1-4)GlcNAc(b1-3)Gal(b1-4)GlcNAc(b1-3)Gal(b1-4)GlcNAc(b1-3)Gal(b1-4)GlcNAc(b1-2)[Gal(b1-4)GlcNAc(b1-3)Gal(b1-4)GlcNAc(b1-3)Gal(b1-4)GlcNAc(b1-3)Gal(b1-4)GlcNAc(b1-3)Gal(b1-4)GlcNAc(b1-6)]Man(a1-6)[Gal(b1-4)GlcNAc(b1-3)Gal(b1-4)GlcNAc(b1-3)Gal(b1-4)GlcNAc(b1-3)Gal(b1-4)GlcNAc(b1-3)Gal(b1-4)GlcNAc(b1-2)Man(a1-3)]Man(b1-4)GlcNAc(b1-4)[Fuc(a1-6)]GlcNAc
# Outline: as §1
# [14] = biological target: Gal(b1-4)GlcNAc(b1-3)Gal(b1-4)GlcNAc(b1-3)Gal(b1-4)GlcNAc(b1-3)Gal(b1-4)GlcNAc(b1-3)Gal(b1-4)GlcNAc(b1-3)Gal(b1-4)GlcNAc(b1-2)Man(a1-3)[Gal(b1-4)GlcNAc(b1-3)Gal(b1-4)GlcNAc(b1-3)Gal(b1-4)GlcNAc(b1-3)Gal(b1-4)GlcNAc(b1-3)Gal(b1-4)GlcNAc(b1-3)Gal(b1-4)GlcNAc(b1-2)Man(a1-6)]Man(b1-4)GlcNAc(b1-4)GlcNAc
# Outline: as §1
# [15] = biological target: Gal(b1-4)GlcNAc(b1-3)Gal(b1-4)GlcNAc(b1-3)GalNAc
# Outline: as §1
# [16] = biological target: Gal(b1-4)GlcNAc(b1-3)Gal(b1-4)GlcNAc(b1-3)[Gal(b1-4)GlcNAc(b1-3)Gal(b1-4)GlcNAc(b1-6)]GalNAc
# Outline: as §1
# [17] = biological target: Gal(b1-4)GlcNAc(b1-3)Gal(b1-4)GlcNAc(b1-6)[Gal(b1-3)]GalNAc
# Outline: as §1
# [18] = biological target: Gal(b1-4)GlcNAc(b1-3)Gal(b1-4)[Fuc(a1-3)]GlcNAc(b1-3)Gal(b1-4)[Fuc(a1-3)]GlcNAc
# Outline: as §1
# [19] = biological target: Gal(b1-4)GlcNAc(b1-3)GalNAc
# Outline: as §1
# [20] = biological target: Gal(b1-4)GlcNAc(b1-3)[Fuc(a1-3)GlcNAc(b1-6)]Gal(b1-4)Glc
# Outline: as §1
# [21] = biological target: Gal(b1-4)GlcNAc(b1-3)[Gal(b1-4)GlcNAc(b1-6)]Gal(b1-4)GlcNAc
# Outline: as §1
# [22] = biological target: Gal(b1-4)GlcNAc(b1-3)[GlcNAc(b1-6)]Gal(b1-4)GlcNAc
# Outline: as §1
# [23] = biological target: Gal(b1-4)GlcNAc(b1-6)Gal(b1-4)GlcNAc
# Outline: as §1
# [24] = biological target: Gal(b1-4)GlcNAc(b1-6)GalNAc
# Outline: as §1
# [25] = biological target: Gal(b1-4)GlcNAc(b1-6)[Gal(b1-3)]GalNAc
# Outline: as §1
# [26] = biological target: Gal(b1-4)GlcNAc(b1-6)[Gal(b1-4)GlcNAc(b1-3)]GalNAc
# Outline: as §1
# [27] = biological target: Gal(b1-4)GlcNAc6P
# Outline: as §1
# [28] = biological target: Gal(b1-6)Gal
# Outline: as §1
# [29] = biological target: Gal3S(b1-3)GalNAc
# Outline: as §1
# [30] = biological target: Gal3S(b1-3)GlcNAc
# Outline: as §1
# [31] = biological target: Gal3S(b1-3)[Fuc(a1-4)]GlcNAc
# Outline: as §1
# [32] = biological target: Gal3S(b1-4)Glc
# Outline: as §1
# [33] = biological target: Gal3S(b1-4)Glc6S
# Outline: as §1
# [34] = biological target: Gal3S(b1-4)GlcNAc
# Outline: as §1
# [35] = biological target: Gal3S(b1-4)[Fuc(a1-3)]Glc6S
# Outline: as §1
# [36] = biological target: Gal3S(b1-4)[Fuc(a1-3)]GlcNAc
# Outline: as §1
# [37] = biological target: Gal3S(b1-4)[Fuc(a1-3)]GlcNAc6S
# Outline: as §1
# [38] = biological target: Gal3S4S(b1-4)GlcNAc
# Outline: as §1
# [39] = biological target: Gal3S6S(b1-4)GlcNAc
# Outline: as §1
# [40] = biological target: Gal3S6S(b1-4)GlcNAc6S
# Outline: as §1
# [41] = biological target: Gal4S(b1-4)GlcNAc
# Outline: as §1
# [42] = biological target: Gal4S6S(b1-4)GlcNAc
# Outline: as §1
# [43] = biological target: Gal6P(b1-4)GlcNAc
# Outline: as §1
# [44] = biological target: Gal6S(b1-3)GlcNAc
# Outline: as §1
# [45] = biological target: Gal6S(b1-3)GlcNAc6S
# Outline: as §1
binder,measurement,setting,value
"cFel (Cyprinus carpio), P68512 (protein) LDCTVIDGNLKQIDAGSGSVVGVNNLNETFVLIDNVFTKISGSLKHFSVGPAGQLGVNTANNIFKYQSGGFVQLAGLLKQVDAGGDQIIAGVNMYDDIYCLNMDANNKWPSSNTPWVQINGKLKYYSCGPYSCWGVNSNDQIFIMKDVSSNVCSGSGSFINIPGLLSMIEVATDGSVFGVNSQGNLYQRTGVTRSKPDGTDWISMVACPNGHKHVSFDLGVLWLVCVDGSIRKCILTD",glycan array binding signal (z-score),[1],-0.29
same,glycan array binding signal (z-score),[2],1.5
same,glycan array binding signal (z-score),[3],-0.622
same,glycan array binding signal (z-score),[4],-0.529
same,glycan array binding signal (z-score),[5],0.409
same,glycan array binding signal (z-score),[6],-0.8
same,glycan array binding signal (z-score),[7],0.105
same,glycan array binding signal (z-score),[8],1.01
same,glycan array binding signal (z-score),[9],-0.084
same,glycan array binding signal (z-score),[10],1.24
same,glycan array binding signal (z-score),[11],-0.612
same,glycan array binding signal (z-score),[12],1.98
same,glycan array binding signal (z-score),[13],0.142
same,glycan array binding signal (z-score),[14],-0.504
same,glycan array binding signal (z-score),[15],-0.089
same,glycan array binding signal (z-score),[16],0.667
same,glycan array binding signal (z-score),[17],0.769
same,glycan array binding signal (z-score),[18],-0.821
same,glycan array binding signal (z-score),[19],-0.436
same,glycan array binding signal (z-score),[20],1.14
same,glycan array binding signal (z-score),[21],-0.87
same,glycan array binding signal (z-score),[22],-0.765
same,glycan array binding signal (z-score),[23],1.2
same,glycan array binding signal (z-score),[24],1.54
same,glycan array binding signal (z-score),[25],1.42
same,glycan array binding signal (z-score),[26],0.528
same,glycan array binding signal (z-score),[27],-0.519
same,glycan array binding signal (z-score),[28],0.54
same,glycan array binding signal (z-score),[29],-0.627
same,glycan array binding signal (z-score),[30],-0.636
same,glycan array binding signal (z-score),[31],-1.14
same,glycan array binding signal (z-score),[32],1.24
same,glycan array binding signal (z-score),[33],-0.538
same,glycan array binding signal (z-score),[34],-0.182
same,glycan array binding signal (z-score),[35],0.52
same,glycan array binding signal (z-score),[36],-0.127
same,glycan array binding signal (z-score),[37],-0.189
same,glycan array binding signal (z-score),[38],0.577
same,glycan array binding signal (z-score),[39],-0.768
same,glycan array binding signal (z-score),[40],0.715
same,glycan array binding signal (z-score),[41],-0.917
same,glycan array binding signal (z-score),[42],0.956
same,glycan array binding signal (z-score),[43],0.206
same,glycan array binding signal (z-score),[44],0.065
same,glycan array binding signal (z-score),[45],0.233

# Given bar-delimited: entries from further up
binder | measurement | setting | value
cFel (Cyprinus carpio), P68512 (protein) LDCTVIDGNLKQIDAGSGSVVGVNNLNETFVLIDNVFTKISGSLKHFSVGPAGQLGVNTANNIFKYQSGGFVQLAGLLKQVDAGGDQIIAGVNMYDDIYCLNMDANNKWPSSNTPWVQINGKLKYYSCGPYSCWGVNSNDQIFIMKDVSSNVCSGSGSFINIPGLLSMIEVATDGSVFGVNSQGNLYQRTGVTRSKPDGTDWISMVACPNGHKHVSFDLGVLWLVCVDGSIRKCILTD | glycan array binding signal (z-score) | [1] | -0.29
same | glycan array binding signal (z-score) | [18] | -0.821
same | glycan array binding signal (z-score) | [20] | 1.14
same | glycan array binding signal (z-score) | [21] | -0.87
same | glycan array binding signal (z-score) | [22] | -0.765
same | glycan array binding signal (z-score) | [25] | 1.42
same | glycan array binding signal (z-score) | [28] | 0.54
same | glycan array binding signal (z-score) | [34] | -0.182
